PubChem BioAssay AID1224828 | NIAID – 2016
Screen: 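Knock-downs that increase or decrease LPS-induced p65 nuclear translocation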 (primary screen). Cells: mouse RAW264.7 G9 macrophage reporter cells (GFP-p65, Tnf promoter-mCherry). Knock-down reagent: siRNA pool against mouse genes, 100 nM. Timing: 2 days siRNA transfection, then 40 min LPS before fixation. Treatment: LPS (Salmonella minnesota R595) at 10 ng/ml. Measured: 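Imaged p65 nuclear translocation ratio, normalised to the plate median, converted to robust z-scores and averaged across two replicates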. Reading the numbers: p65 translocation robust z-score: higher = more nuclear NF-kappaB p65 after LPS than the plate median; nuclear/cytoplasmic p65 ratio: higher = more nuclear NF-kappaB p65. Rule for the call: 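Called active when z exceeds 3.3 or falls under -1.56 (median of Tlr4 controls), giving activity score of at least 50; no calls for control wells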. Calls: active = hit (p65 shift raised or lowered); inactive = no clear change.
The deposit covers about 17,000 reagents; shown is a part drawn at random. Over the whole deposit, 762 (4.5%) got an active call. 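Active calls include both raised and lowered p65 entry, mostly lowered; wells with fewer than 50 cells lack a z-score.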 Raw values vary from plate to plate and are shown uncorrected.

Dusp22 (dual specificity phosphatase 22) → p65 translocation robust z-score: -1.51; nuclear/cytoplasmic p65 ratio, rep 1: 1.24; nuclear/cytoplasmic p65 ratio, rep 2: 1.19; low cell count flag: enough cells to score; activity call: inactive
Plp1 (proteolipid protein (myelin) 1) → p65 translocation robust z-score: -0.24; nuclear/cytoplasmic p65 ratio, rep 1: 1.41; nuclear/cytoplasmic p65 ratio, rep 2: 1.42; low cell count flag: enough cells to score; activity call: inactive
D630023F18Rik (RIKEN cDNA D630023F18 gene) → p65 translocation robust z-score: -1.01; nuclear/cytoplasmic p65 ratio, rep 1: 1.38; nuclear/cytoplasmic p65 ratio, rep 2: 1.44; low cell count flag: enough cells to score; activity call: inactive
Taar5 (trace amine-associated receptor 5) → p65 translocation robust z-score: 0.78; nuclear/cytoplasmic p65 ratio, rep 1: 1.58; nuclear/cytoplasmic p65 ratio, rep 2: 1.73; low cell count flag: enough cells to score; activity call: inactive
Gm56926 (predicted gene, 56926) → p65 translocation robust z-score: -0.81; nuclear/cytoplasmic p65 ratio, rep 1: 1.52; nuclear/cytoplasmic p65 ratio, rep 2: 1.64; low cell count flag: enough cells to score; activity call: inactive
Tmeff1 → nuclear/cytoplasmic p65 ratio, rep 1: 1.41; nuclear/cytoplasmic p65 ratio, rep 2: 1.4; low cell count flag: fewer than 50 cells per well; well left out of scoring; activity call: inactive
Pgap2 (post-GPI attachment to proteins 2) → p65 translocation robust z-score: -2.45; nuclear/cytoplasmic p65 ratio, rep 1: 1.22; nuclear/cytoplasmic p65 ratio, rep 2: 1.08; low cell count flag: enough cells to score; activity call: active
Prrc2b (proline-rich coiled-coil 2B) → p65 translocation robust z-score: 0.05; nuclear/cytoplasmic p65 ratio, rep 1: 1.37; nuclear/cytoplasmic p65 ratio, rep 2: 1.57; low cell count flag: enough cells to score; activity call: inactive
Polr2m (polymerase (RNA) II (DNA directed) polypeptide M) → p65 translocation robust z-score: 0.42; nuclear/cytoplasmic p65 ratio, rep 1: 1.52; nuclear/cytoplasmic p65 ratio, rep 2: 1.4; low cell count flag: enough cells to score; activity call: inactive
Klk8 (kallikrein related-peptidase 8) → nuclear/cytoplasmic p65 ratio, rep 1: 1.47; nuclear/cytoplasmic p65 ratio, rep 2: 1.17; low cell count flag: fewer than 50 cells per well; well left out of scoring; activity call: inactive
Mrgprb2 (MAS-related GPR, member B2) → p65 translocation robust z-score: 0.73; nuclear/cytoplasmic p65 ratio, rep 1: 1.57; nuclear/cytoplasmic p65 ratio, rep 2: 1.73; low cell count flag: enough cells to score; activity call: inactive
Tymp (thymidine phosphorylase) → p65 translocation robust z-score: -1.36; nuclear/cytoplasmic p65 ratio, rep 1: 1.3; nuclear/cytoplasmic p65 ratio, rep 2: 1.17; low cell count flag: enough cells to score; activity call: inactive
Fpr2 (formyl peptide receptor 2) → p65 translocation robust z-score: 0.58; nuclear/cytoplasmic p65 ratio, rep 1: 1.59; nuclear/cytoplasmic p65 ratio, rep 2: 1.66; low cell count flag: enough cells to score; activity call: inactive
Aggf1 (angiogenic factor with G patch and FHA domains 1) → p65 translocation robust z-score: 0.35; nuclear/cytoplasmic p65 ratio, rep 1: 1.6; nuclear/cytoplasmic p65 ratio, rep 2: 1.73; low cell count flag: enough cells to score; activity call: inactive
Cd200r4 (CD200 receptor 4) → p65 translocation robust z-score: -1.4; nuclear/cytoplasmic p65 ratio, rep 1: 1.42; nuclear/cytoplasmic p65 ratio, rep 2: 1.25; low cell count flag: enough cells to score; activity call: inactive
Polr3k (polymerase (RNA) III (DNA directed) polypeptide K) → nuclear/cytoplasmic p65 ratio, rep 1: 1.33; nuclear/cytoplasmic p65 ratio, rep 2: 1.15; low cell count flag: fewer than 50 cells per well; well left out of scoring; activity call: inactive
Dusp8 (dual specificity phosphatase 8) → p65 translocation robust z-score: 1.13; nuclear/cytoplasmic p65 ratio, rep 1: 1.92; nuclear/cytoplasmic p65 ratio, rep 2: 1.49; low cell count flag: enough cells to score; activity call: inactive
Prxl2b (peroxiredoxin like 2B) → nuclear/cytoplasmic p65 ratio, rep 1: 1.31; nuclear/cytoplasmic p65 ratio, rep 2: 1.61; low cell count flag: fewer than 50 cells per well; well left out of scoring; activity call: inactive
Adgrb3 (adhesion G protein-coupled receptor B3) → p65 translocation robust z-score: -1.97; nuclear/cytoplasmic p65 ratio, rep 1: 1.32; nuclear/cytoplasmic p65 ratio, rep 2: 1.2; low cell count flag: enough cells to score; activity call: active
Osbpl3 (oxysterol binding protein-like 3) → nuclear/cytoplasmic p65 ratio, rep 1: 1.55; nuclear/cytoplasmic p65 ratio, rep 2: 1.17; low cell count flag: fewer than 50 cells per well; well left out of scoring; activity call: inactive
Acaa2 (acetyl-CoA acyltransferase 2) → p65 translocation robust z-score: 0.27; nuclear/cytoplasmic p65 ratio, rep 1: 1.57; nuclear/cytoplasmic p65 ratio, rep 2: 1.73; low cell count flag: enough cells to score; activity call: inactive

Only “low cell count flag” (3 entries from above):
D630023F18Rik (RIKEN cDNA D630023F18 gene) = enough cells to score
Taar5 (trace amine-associated receptor 5) = enough cells to score
Gm56926 (predicted gene, 56926) = enough cells to score
